The supplement of paper PMC10849652
Some of the results follow.

Chains of the proteins cited; added tags and fusions are not shown. Lines headed by an entry give the natural chain unless they say otherwise; changes in a name come on top.
UniProt O14879: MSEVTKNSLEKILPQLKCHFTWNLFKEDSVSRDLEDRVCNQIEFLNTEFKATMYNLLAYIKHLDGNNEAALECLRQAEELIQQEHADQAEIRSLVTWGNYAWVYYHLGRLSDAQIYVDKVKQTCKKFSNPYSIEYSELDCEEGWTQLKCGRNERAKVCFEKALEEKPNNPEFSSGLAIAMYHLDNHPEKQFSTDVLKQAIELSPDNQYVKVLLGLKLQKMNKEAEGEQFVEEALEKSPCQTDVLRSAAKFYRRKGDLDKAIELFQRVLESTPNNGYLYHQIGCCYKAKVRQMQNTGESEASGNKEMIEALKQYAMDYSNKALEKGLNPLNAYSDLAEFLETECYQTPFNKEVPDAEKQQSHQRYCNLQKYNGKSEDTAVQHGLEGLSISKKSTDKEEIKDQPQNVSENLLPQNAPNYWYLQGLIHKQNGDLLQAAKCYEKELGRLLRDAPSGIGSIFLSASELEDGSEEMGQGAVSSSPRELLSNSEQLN
IGKV3D-7, A0A0C4DH55, UniProt A0A0C4DH55, whole entry, looked up: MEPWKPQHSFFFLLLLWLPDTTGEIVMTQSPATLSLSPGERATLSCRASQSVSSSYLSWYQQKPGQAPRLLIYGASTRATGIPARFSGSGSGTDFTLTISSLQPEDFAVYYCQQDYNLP
UniProt Q9H7X7: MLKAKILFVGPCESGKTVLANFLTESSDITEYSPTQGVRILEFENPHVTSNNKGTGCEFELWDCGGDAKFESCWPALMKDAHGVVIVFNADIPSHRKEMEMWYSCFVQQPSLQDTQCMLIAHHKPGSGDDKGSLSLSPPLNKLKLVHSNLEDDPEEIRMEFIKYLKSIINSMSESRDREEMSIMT
UniProt Q96D96: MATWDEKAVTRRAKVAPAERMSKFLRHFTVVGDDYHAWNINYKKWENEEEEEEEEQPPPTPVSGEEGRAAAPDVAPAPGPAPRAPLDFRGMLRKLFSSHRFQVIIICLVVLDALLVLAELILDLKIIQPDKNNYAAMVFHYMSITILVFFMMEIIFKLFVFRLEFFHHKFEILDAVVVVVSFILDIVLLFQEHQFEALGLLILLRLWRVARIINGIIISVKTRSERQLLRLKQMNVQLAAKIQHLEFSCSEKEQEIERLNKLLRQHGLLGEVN
UniProt Q4G0P3: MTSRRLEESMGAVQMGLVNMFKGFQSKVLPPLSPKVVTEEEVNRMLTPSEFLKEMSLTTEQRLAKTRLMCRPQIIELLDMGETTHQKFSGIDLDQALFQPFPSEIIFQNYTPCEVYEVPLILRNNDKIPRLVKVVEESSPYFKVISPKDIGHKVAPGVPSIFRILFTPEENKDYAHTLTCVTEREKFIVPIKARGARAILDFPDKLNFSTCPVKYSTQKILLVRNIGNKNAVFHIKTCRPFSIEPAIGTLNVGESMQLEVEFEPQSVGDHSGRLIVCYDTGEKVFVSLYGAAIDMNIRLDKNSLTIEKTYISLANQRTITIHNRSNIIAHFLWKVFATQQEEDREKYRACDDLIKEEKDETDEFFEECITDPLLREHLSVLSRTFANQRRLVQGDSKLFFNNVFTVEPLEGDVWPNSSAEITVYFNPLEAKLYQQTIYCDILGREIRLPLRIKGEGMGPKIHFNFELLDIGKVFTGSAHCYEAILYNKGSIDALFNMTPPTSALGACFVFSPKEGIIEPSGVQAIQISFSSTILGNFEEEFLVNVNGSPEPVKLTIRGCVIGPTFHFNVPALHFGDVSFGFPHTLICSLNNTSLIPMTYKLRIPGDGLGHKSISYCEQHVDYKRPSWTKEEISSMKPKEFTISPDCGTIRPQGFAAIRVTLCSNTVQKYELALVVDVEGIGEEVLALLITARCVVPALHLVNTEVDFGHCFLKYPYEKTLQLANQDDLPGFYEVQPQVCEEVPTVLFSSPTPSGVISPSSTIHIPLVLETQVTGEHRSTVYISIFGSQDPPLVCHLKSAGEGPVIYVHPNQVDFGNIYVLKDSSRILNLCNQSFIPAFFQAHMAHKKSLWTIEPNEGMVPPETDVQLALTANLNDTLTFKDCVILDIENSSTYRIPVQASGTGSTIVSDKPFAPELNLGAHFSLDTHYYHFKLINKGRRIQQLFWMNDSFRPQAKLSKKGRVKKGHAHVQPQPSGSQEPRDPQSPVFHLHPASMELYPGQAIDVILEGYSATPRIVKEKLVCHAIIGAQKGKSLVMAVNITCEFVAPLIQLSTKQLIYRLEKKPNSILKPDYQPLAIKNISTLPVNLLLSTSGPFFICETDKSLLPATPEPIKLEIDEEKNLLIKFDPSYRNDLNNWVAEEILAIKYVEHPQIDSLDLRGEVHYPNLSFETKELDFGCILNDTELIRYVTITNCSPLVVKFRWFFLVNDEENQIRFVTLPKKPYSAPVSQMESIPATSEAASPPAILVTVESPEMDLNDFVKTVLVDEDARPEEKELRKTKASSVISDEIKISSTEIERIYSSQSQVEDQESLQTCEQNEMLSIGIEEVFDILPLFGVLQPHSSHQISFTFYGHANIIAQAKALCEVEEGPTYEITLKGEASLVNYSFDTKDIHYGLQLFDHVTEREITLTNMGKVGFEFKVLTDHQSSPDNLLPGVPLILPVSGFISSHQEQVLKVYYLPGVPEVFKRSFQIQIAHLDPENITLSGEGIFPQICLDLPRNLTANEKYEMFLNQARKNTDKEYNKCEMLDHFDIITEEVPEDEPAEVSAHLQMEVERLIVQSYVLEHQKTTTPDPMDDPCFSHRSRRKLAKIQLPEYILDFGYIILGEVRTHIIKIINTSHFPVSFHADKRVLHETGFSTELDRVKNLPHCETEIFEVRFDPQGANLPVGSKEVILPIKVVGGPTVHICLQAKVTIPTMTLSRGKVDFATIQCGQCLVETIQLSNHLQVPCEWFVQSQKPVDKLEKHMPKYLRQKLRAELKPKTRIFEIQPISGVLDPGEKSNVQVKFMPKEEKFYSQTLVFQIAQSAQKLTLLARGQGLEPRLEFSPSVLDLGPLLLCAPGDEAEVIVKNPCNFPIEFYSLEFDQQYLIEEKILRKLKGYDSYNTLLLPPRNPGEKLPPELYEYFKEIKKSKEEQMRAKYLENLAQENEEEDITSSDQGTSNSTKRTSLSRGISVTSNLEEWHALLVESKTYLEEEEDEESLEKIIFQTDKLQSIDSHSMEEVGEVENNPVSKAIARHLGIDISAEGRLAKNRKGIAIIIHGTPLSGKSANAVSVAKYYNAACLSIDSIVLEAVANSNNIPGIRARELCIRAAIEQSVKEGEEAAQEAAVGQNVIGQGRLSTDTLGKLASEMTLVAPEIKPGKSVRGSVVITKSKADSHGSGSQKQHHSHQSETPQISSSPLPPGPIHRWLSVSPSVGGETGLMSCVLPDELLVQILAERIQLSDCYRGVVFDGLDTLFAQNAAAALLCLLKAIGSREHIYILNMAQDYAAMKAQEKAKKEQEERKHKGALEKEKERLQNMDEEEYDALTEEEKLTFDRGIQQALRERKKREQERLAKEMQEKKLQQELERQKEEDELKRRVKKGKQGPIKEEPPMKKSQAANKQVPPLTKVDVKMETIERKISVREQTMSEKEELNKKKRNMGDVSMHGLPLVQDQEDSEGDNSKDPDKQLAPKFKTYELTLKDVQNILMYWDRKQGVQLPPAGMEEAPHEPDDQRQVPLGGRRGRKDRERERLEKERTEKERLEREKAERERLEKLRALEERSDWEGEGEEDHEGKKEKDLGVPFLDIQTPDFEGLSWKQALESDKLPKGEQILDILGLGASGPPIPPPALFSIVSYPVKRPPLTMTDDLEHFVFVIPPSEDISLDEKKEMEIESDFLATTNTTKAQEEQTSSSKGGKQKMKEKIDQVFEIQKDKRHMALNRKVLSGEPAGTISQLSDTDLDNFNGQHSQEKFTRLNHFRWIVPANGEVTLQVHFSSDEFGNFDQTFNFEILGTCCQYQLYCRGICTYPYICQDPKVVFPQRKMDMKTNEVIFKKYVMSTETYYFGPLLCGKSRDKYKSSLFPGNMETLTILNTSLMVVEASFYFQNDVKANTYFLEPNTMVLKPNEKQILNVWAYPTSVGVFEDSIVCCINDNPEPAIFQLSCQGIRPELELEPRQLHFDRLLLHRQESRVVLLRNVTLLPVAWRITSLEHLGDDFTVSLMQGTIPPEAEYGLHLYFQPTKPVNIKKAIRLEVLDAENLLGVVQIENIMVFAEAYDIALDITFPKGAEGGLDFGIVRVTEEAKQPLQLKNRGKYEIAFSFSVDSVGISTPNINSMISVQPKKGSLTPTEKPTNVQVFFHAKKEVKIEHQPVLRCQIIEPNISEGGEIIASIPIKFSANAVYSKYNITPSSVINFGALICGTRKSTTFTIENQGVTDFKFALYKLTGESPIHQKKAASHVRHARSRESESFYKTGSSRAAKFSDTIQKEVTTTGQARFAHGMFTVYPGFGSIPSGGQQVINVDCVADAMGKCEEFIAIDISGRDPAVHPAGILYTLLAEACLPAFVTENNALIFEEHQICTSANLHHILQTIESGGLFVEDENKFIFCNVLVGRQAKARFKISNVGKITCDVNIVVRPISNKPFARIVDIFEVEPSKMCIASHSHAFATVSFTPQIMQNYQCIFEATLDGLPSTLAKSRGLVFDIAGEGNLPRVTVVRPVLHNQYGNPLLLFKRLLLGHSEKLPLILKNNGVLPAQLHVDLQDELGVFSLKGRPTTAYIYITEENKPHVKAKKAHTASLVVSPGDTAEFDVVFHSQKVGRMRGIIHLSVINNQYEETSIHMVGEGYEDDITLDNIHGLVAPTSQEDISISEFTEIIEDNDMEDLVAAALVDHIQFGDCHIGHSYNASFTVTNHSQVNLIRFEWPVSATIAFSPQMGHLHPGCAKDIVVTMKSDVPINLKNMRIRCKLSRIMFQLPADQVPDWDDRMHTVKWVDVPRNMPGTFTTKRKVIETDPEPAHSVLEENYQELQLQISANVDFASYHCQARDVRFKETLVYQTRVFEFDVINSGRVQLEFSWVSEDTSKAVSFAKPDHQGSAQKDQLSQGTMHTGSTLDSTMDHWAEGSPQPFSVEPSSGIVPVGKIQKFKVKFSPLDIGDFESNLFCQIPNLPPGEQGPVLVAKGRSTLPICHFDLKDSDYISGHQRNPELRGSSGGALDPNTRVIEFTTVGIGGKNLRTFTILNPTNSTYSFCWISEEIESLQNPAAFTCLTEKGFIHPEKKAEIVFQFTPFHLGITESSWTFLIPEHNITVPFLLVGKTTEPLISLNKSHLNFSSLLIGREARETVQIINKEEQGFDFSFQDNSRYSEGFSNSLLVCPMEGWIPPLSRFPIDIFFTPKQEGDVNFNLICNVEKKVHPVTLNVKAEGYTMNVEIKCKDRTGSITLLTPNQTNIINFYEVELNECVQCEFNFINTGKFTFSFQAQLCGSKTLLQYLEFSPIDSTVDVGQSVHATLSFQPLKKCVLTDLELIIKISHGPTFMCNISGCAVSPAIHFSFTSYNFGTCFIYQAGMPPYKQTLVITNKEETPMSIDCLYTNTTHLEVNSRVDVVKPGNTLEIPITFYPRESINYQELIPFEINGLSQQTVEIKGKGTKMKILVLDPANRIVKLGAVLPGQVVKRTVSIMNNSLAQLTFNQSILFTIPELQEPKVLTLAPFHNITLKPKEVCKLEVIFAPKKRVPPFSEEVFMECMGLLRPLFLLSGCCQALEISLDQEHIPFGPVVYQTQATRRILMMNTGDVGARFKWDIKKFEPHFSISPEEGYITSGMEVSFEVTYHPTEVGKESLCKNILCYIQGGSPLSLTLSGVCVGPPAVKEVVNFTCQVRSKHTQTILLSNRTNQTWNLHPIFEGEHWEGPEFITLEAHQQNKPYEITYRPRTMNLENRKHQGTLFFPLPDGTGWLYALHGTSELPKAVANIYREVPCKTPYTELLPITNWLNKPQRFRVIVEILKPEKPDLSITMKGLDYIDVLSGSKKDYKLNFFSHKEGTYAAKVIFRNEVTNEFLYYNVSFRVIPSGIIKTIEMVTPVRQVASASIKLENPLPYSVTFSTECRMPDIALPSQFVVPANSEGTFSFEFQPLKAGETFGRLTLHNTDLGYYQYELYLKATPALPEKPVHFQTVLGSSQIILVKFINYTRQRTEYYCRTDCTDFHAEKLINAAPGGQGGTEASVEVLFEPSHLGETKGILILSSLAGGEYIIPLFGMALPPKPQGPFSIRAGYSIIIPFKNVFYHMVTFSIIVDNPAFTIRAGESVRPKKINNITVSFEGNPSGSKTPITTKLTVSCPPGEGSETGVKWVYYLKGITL
UniProt P50213: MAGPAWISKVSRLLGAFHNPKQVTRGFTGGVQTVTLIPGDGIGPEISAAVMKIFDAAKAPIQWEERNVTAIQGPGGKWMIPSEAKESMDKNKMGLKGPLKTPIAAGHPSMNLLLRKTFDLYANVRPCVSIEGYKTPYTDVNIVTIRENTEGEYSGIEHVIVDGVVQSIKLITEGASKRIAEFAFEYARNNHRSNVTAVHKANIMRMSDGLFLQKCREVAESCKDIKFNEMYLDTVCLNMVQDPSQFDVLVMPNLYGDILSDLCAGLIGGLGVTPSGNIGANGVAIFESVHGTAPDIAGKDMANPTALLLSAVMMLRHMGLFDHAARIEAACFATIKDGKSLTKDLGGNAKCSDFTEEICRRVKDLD

The targets below were run with C#Cc1cccc(Nc2ncnc3cc(OCCOC)c(OCCOC)cc23)c1 [erlotinib] (assay: log2 fold change, soluble protein after heating vs DMSO (PISA); higher = thermal stabilisation; K562 lysate, 10 uM; active = over 0.2 and 3.5 SD of the protein, either way, in both replicates (recomputed)).
Summary of the method: (§1)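 The values are log-two fold changes in thermal stability compared with solvent controls and come from duplicates. They were obtained by TMTpro 16plex LC-MS/MS, with channel sums equalised, on the supernatant after 21,000xg for 90 min. That supernatant came from crude K562 extract at 1 mg/mL protein treated with 10 μM compound for 30 min, heated for 3 min across 48°C-58°C, pooled and brought to 0.5% NP-40 at 4°C.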
For IFIT3 (UniProt O14879), the log2 fold change was inactive: 0.221.
For HYOU1, A0A494C039, the log2 fold change was inactive: 0.049.
For IGKV3D-7, A0A0C4DH55, the log2 fold change was inactive: 0.376.
For IGHMBP2 (UniProt P38935), the log2 fold change was inactive: -0.032.
For IDS (UniProt P22304), the log2 fold change was inactive: -0.068.
In the case of IFT22 (UniProt Q9H7X7), the log2 fold change is reported as inactive: -0.077.
ING1 (UniProt Q9UK53) was tested, and the log2 fold change was inactive: 0.005.
In the case of IFT57 (UniProt Q9NWB7), the log2 fold change is reported as inactive: 0.141.
IGHV3-72, A0A4W8ZXM2 was tested, and the log2 fold change was inactive: -0.153.
In the case of HVCN1 (UniProt Q96D96), the log2 fold change is reported as inactive: -0.085.
For IGKC (UniProt P01834), the log2 fold change was inactive: -0.017.
For IGFBP4 (UniProt P22692), the log2 fold change was inactive: 0.06.

What follows are targets tested with C/C(=N\NC(=O)C1=CC(=CC=C1)S(=O)(=O)N2CCOCC2)/C3=C(C=CC(=C3)Cl)O in the same assay as above.
Summary of the method: as §1
For HTD2 (UniProt P86397), the log2 fold change was inactive: -0.085.
With IMPDH2 (UniProt H0Y4R1) the log2 fold change was inactive: -0.014.
With ICMT (UniProt O60725) the log2 fold change was inactive: 0.085.
For IFT122 isoform 5 (UniProt Q9HBG6), the log2 fold change was inactive: 0.206.
With HTR1F (UniProt P30939) the log2 fold change was inactive: 0.28.
HYDIN (UniProt Q4G0P3) was tested, and the log2 fold change was inactive: -0.022.
IGSF1 isoform 4 (UniProt Q8N6C5) was tested, and the log2 fold change was inactive: -0.079.
In the case of IFT46 isoform 2 (UniProt Q9NQC8), the log2 fold change is reported as inactive: -0.018.
In the case of IDH3A isoform 2 (UniProt P50213), the log2 fold change is reported as inactive: 0.007.

These targets were tested with C1=CC(=CC=C1C2=NC3=C(N2)C=C(C=C3)C(=O)N)OC4=CC=C(C=C4)Cl in the same assay as above.
Summary of the method: as §1
In the case of IFIT3 (UniProt O14879), the log2 fold change is reported as inactive: -0.005.
For HYOU1, A0A494C039, the log2 fold change was inactive: -0.171.
IGKV3D-7, A0A0C4DH55 was tested, and the log2 fold change was inactive: -0.03.
With IGHMBP2 (UniProt P38935) the log2 fold change was inactive: -0.026.
In the case of IDS (UniProt P22304), the log2 fold change is reported as inactive: 0.02.
With IFT22 (UniProt Q9H7X7) the log2 fold change was inactive: 0.036.
In the case of ING1 (UniProt Q9UK53), the log2 fold change is reported as inactive: 0.07.
With IFT57 (UniProt Q9NWB7) the log2 fold change was inactive: -0.136.
IGHV3-72, A0A4W8ZXM2 was tested, and the log2 fold change was inactive: 0.049.
HVCN1 (UniProt Q96D96) was tested, and the log2 fold change was inactive: 0.181.
IGKC (UniProt P01834) was tested, and the log2 fold change was inactive: -0.136.
For IGFBP4 (UniProt P22692), the log2 fold change was inactive: 0.025.

Each target was assayed with C1=CC2=C(C=CC(=C2)/C=C\3/C(=O)NC(=NCC4=CC=CS4)S3)N=C1 in the same assay as above.
Summary of the method: as §1
For HTD2 (UniProt P86397), the log2 fold change was inactive: -0.086.
With IMPDH2 (UniProt H0Y4R1) the log2 fold change was inactive: 0.023.
For ICMT (UniProt O60725), the log2 fold change was inactive: -0.01.
For IFT122 isoform 5 (UniProt Q9HBG6), the log2 fold change was inactive: 0.
In the case of HTR1F (UniProt P30939), the log2 fold change is reported as inactive: -0.02.
In the case of HYDIN (UniProt Q4G0P3), the log2 fold change is reported as inactive: 0.005.
With IGSF1 isoform 4 (UniProt Q8N6C5) the log2 fold change was inactive: 0.115.
With IFT46 isoform 2 (UniProt Q9NQC8) the log2 fold change was inactive: -0.032.
With IDH3A isoform 2 (UniProt P50213) the log2 fold change was inactive: 0.064.

Each target was assayed with C1=CC2=NC=CN=C2C=C1/C=C/3\C(=O)NC(=O)S3 in the same assay as above.
Summary of the method: as §1
In the case of IFT81 (UniProt Q8WYA0), the log2 fold change is reported as inactive: 0.105.
HYOU1, A0A494C039 was tested, and the log2 fold change was inactive: 0.072.
ICE1 (UniProt Q9Y2F5) was tested, and the log2 fold change was inactive: 0.122.
In the case of ING4 (UniProt Q9UNL4), the log2 fold change is reported as inactive: -0.166.
In the case of HSPH1 (UniProt Q5TBM3), the log2 fold change is reported as inactive: 0.039.
For ICAM4 (UniProt Q14773), the log2 fold change was inactive: -0.1.
INO80C isoform 4 (UniProt Q6PI98) was tested, and the log2 fold change was inactive: -0.097.
For HTD2 (UniProt P86397), the log2 fold change was inactive: 0.019.
IMPDH2 (UniProt H0Y4R1) was tested, and the log2 fold change was inactive: -0.118.
With ICOSLG isoform 2 (UniProt O75144) the log2 fold change was inactive: -0.045.
For IGHMBP2 (UniProt P38935), the log2 fold change was inactive: -0.112.
With IDS (UniProt P22304) the log2 fold change was inactive: 0.101.
In the case of IL17RA (UniProt Q96F46), the log2 fold change is reported as inactive: 0.004.
For IFIH1 (UniProt Q9BYX4), the log2 fold change was inactive: 0.117.
For IFT22 (UniProt Q9H7X7), the log2 fold change was inactive: -0.158.
In the case of ING1 (UniProt Q9UK53), the log2 fold change is reported as inactive: -0.222.
ICMT (UniProt O60725) was tested, and the log2 fold change was inactive: -0.049.
In the case of HVCN1 (UniProt Q96D96), the log2 fold change is reported as inactive: 0.031.
With HTR1F (UniProt P30939) the log2 fold change was inactive: 0.213.
With IGKC (UniProt P01834) the log2 fold change was inactive: 0.321.
For IKZF4 (UniProt Q9H2S9), the log2 fold change was inactive: 0.026.
For IGHG3 (UniProt P01860), the log2 fold change was inactive: 0.366.
With HSPH1 isoform 2 (UniProt Q92598) the log2 fold change was inactive: -0.149.
With IGFBP4 (UniProt P22692) the log2 fold change was inactive: 0.218.
With HUWE1, A0A087X1S3 the log2 fold change was inactive: -0.017.
With IDH3A isoform 2 (UniProt P50213) the log2 fold change was inactive: 0.059.

Each target was assayed with C1=CC=C(C=C1)C2=NC(=C(N2)C3=CC=NC=C3)C4=CC(=C(C=C4)Cl)O in the same assay as above.
Summary of the method: as §1
For IFT81 (UniProt Q8WYA0), the log2 fold change was inactive: 0.005.
IFIT3 (UniProt O14879) was tested, and the log2 fold change was inactive: 0.083.
ICE1 (UniProt Q9Y2F5) was tested, and the log2 fold change was inactive: -0.079.
For HSPH1 (UniProt Q5TBM3), the log2 fold change was inactive: 0.05.
With ICAM4 (UniProt Q14773) the log2 fold change was inactive: -0.145.
With IGHA2 (UniProt P01877) the log2 fold change was inactive: -0.168.
With INO80C isoform 4 (UniProt Q6PI98) the log2 fold change was inactive: 0.079.
HTD2 (UniProt P86397) was tested, and the log2 fold change was inactive: -0.199.
In the case of IMPDH2 (UniProt H0Y4R1), the log2 fold change is reported as inactive: -0.155.
For IGKV3D-7, A0A0C4DH55, the log2 fold change was inactive: 0.444.
ICOSLG isoform 2 (UniProt O75144) was tested, and the log2 fold change was inactive: -0.108.
For HUWE1 (UniProt H0Y659), the log2 fold change was inactive: -0.14.
With IFT22 (UniProt Q9H7X7) the log2 fold change was inactive: 0.181.
For ING1 (UniProt Q9UK53), the log2 fold change was inactive: -0.023.
IFT57 (UniProt Q9NWB7) was tested, and the log2 fold change was inactive: -0.082.
With IGHV3-72, A0A4W8ZXM2 the log2 fold change was inactive: -0.044.
In the case of ICMT (UniProt O60725), the log2 fold change is reported as inactive: 0.039.
With IFT122 isoform 5 (UniProt Q9HBG6) the log2 fold change was inactive: -0.126.
In the case of IFT88 (UniProt Q13099), the log2 fold change is reported as inactive: 0.025.
For IGKC (UniProt P01834), the log2 fold change was inactive: 0.43.
In the case of HYDIN (UniProt Q4G0P3), the log2 fold change is reported as active: 1.34.
For IKZF4 (UniProt Q9H2S9), the log2 fold change was inactive: 0.056.
IGHG3 (UniProt P01860) was tested, and the log2 fold change was inactive: 0.721.
In the case of HSPH1 isoform 2 (UniProt Q92598), the log2 fold change is reported as inactive: -0.028.
IGFBP4 (UniProt P22692) was tested, and the log2 fold change was inactive: -0.033.
In the case of HUWE1, A0A087X1S3, the log2 fold change is reported as inactive: 0.101.
